Test results published in the supplement of paper PMC3334620.
Over roughly 33,000 sequences, “E-score (-0.5 to 0.5)” has its median near -8e-05; the highest 2% begin near 0.23. This is one part of the list.

Target: T1, Nrg2 (UniProt P38082)
T1 sequence: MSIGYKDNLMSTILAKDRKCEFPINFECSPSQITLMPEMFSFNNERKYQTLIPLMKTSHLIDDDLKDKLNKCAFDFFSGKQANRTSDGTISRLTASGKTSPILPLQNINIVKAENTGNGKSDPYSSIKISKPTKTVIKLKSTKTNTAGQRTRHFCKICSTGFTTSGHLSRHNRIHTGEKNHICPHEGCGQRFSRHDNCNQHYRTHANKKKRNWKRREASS
Experiment: PBM E-score (8-mer binding enrichment) (E-score (-0.5 to 0.5)); higher = stronger / more preferred TF binding
Details: protein concentration: 100 nM; construct: GST-full length
Method: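 Universal 'all 10-mer' protein binding microarrays (Agilent AMADID 015681) probed with GST-tagged S. cerevisiae TFs (full-length or DBD) made by in vitro transcription/translation (PURExpress), about 100-200 nM. Bound TF was detected with fluorescent anti-GST. Each ungapped 8-mer (which stands for itself and its reverse complement) is scored by the PBM enrichment score (E-score), a modified Wilcoxon-Mann-Whitney statistic from -0.5 to +0.5, computed with the Universal PBM Analysis Suite. Scale: above 0.35 generally sequence-specific binding.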

Row | Sequence | PBM E-score
1 | CTGAGCGA | -0.106
2 | ATGGAGGA | -0.0258
3 | CAGGGTCA | 0.0802
4 | CACGTATC | -0.00716
5 | CAAGGTGG | -0.0176
6 | CACAACGA | -0.059
7 | CCTTGTGA | -0.044
8 | CGCTGCCC | -0.213
9 | CGGTTTCA | -0.0393
10 | AGAAATTC | -0.0387
11 | ACCACCAC | 0.0164
12 | AGCTAAGG | -0.224
13 | AAATCGCA | 0.158
14 | GCAGATTA | 0.0952
15 | CAGTGCCG | -0.0687
16 | CGGGGTAG | -0.0188
17 | AATTATTC | 0.198
18 | ATGTCAAT | 0.0977
19 | GTCCCCAC | -0.178
20 | GAGTGGTA | 0.0172
21 | AGCCTGCG | -0.233
22 | AATCGAAC | 0.169
23 | AAACTAAT | 0.199
24 | GTTACAAC | 0.126
25 | ATCTTCGG | 0.0324

Row | Sequence | PBM E-score
26 | ACGTGCCT | 0.00112
27 | ATTTGGGA | 0.0513
28 | ATCCCATC | -0.144
29 | ATCGGCGG | 0.199
30 | CTTGGGTA | -0.00881
31 | GACTAGAA | -0.0796
32 | ACATCAGC | -0.00951
33 | CGGACCCC | 0.0837
34 | CTTCGAAC | 0.108
35 | GACTCACC | -0.148
36 | GCCACTCA | 0.0595
37 | TATAGGAA | 0.0655
38 | CAGTTGTC | 0.0512
39 | GTATCAGA | 0.0276
40 | GGACTGCA | -0.154
41 | AGTACCCC | -0.0371
42 | AGGATGGA | -0.195
43 | ATCGACAA | 0.119
44 | ATTGCAAT | 0.243
45 | AGCATGTC | 0.0343
46 | ACGTTCAA | -0.133
47 | GGATAACA | -0.0583
48 | ATATTAGG | 0.18
49 | GATTCGGC | 0.0798
50 | ATCAAAGA | -0.0298

Row | Sequence | PBM E-score
51 | CCCTAGAG | 0.15
52 | GCCTATCC | -0.175
53 | GTAGCTCA | -0.0915
54 | TAACGACA | 0.115
55 | AAATACAT | 0.0058
56 | ACAACTGC | -0.016
57 | AGGGACCT | 0.382
58 | ATGATCTG | 0.15
59 | CGCTGTGC | 0.167
60 | CGACAAGC | -0.0195
61 | CAACATCC | -0.0888
62 | CCGGGAGC | -0.266
63 | AGGCTGAG | -0.0549
64 | CCAAAGTA | 0.00471
65 | GAAGTTAA | -0.00457
66 | ACATCAAT | 0.079
67 | CAAACCAC | -0.00637
68 | CCACCAAG | 0.0215
69 | AAACCCAG | 0.00959
70 | ACATCAAC | 0.228
71 | AATAACAC | 0.197
72 | GACCAAGC | -0.0404
73 | ATCAATGC | 0.0965
74 | AACATCCA | 0.0677
75 | GGACAAAC | 0.0767

Reformatted field by field: entries from further up.
ATCCCATC
  PBM E-score: -0.144
ATCGGCGG
  PBM E-score: 0.199
CTTGGGTA
  PBM E-score: -0.00881

(further entries)

Row | Sequence | PBM E-score
76 | ATAGCCAG | -0.127
77 | GAAAAGGA | -0.0375
78 | CCTGATCG | -0.0221
79 | AAATTGAT | 0.115
80 | ATTTGTGA | -0.0161
81 | GAGCTAAA | -0.0724
82 | TCCTGCCA | -0.123
83 | ACCTCCAA | -0.174
84 | ATGGAAAA | 0.0617
85 | ACGGGTCA | -0.231
86 | CTTTAAAA | -0.0806
87 | AATCTGAG | -0.0573
88 | ACGGTCTG | -0.0636
89 | CAATACGA | 0.0389
90 | GAGTATAC | -0.00627
91 | GTGCCCAA | -0.029
92 | GCCTTGCC | -0.147
93 | CAGCTACA | 0.0867
94 | GACTAAGC | -0.0902
95 | CGGTTAGC | -0.25
96 | GGGACAAC | 0.0721
97 | CGTTAATA | 0.11
98 | ATTAAGTA | -0.0327
99 | GGGAAAAC | -0.00151
100 | GCCGGCCC | 0.00556

Row | Sequence | PBM E-score
101 | GACTGTCC | -0.0567
102 | CAAGCTTA | 0.048
103 | TATGACAA | 0.071
104 | CAATCAGG | -0.0411
105 | ATTGCAAA | 0.127
106 | CGTAAGTC | -0.0277
107 | ACCATTCG | -0.135
108 | ATTTGTTG | 0.137
109 | AGGCAAAG | -0.0784
110 | AATGGAGA | -0.105
111 | ACTAGTCT | -0.105
112 | CGGTAGGA | -0.0892
113 | GCCGCCGA | 0.19
114 | ATTCACGA | 0.0517
115 | AGGGATAA | 0.0739
116 | GACCCTGC | 0.331
117 | TACAAGTA | -0.0759
118 | GCACCGGC | 0.0655
119 | AGGGCGTA | 0.00226
120 | CGTGCCGA | 0.0149
121 | ATCCTACG | -0.0483
122 | ATAATCCA | 0.128
123 | ATAGGGAG | -0.184
124 | CCCACTTC | 0.0212
125 | ATATCCAG | 0.211

Row | Sequence | PBM E-score
126 | GGGTACGA | 0.0582
127 | ATCTACAT | 0.148
128 | TAAACATA | 0.127
129 | AAACATAA | 0.141
130 | CCGGTCGA | -0.157
131 | GATGTTCA | -0.165
132 | ACAAGTTG | 0.0622
133 | GACGGTCC | -0.0844
134 | CAACGGGC | 0.0722
135 | CCGGAGCG | -0.267
136 | AAATTTAG | 0.106
137 | GCCAACGA | -0.0525
138 | AACAAACA | 0.22
139 | CCTGCGTC | -0.15
140 | CTGTTATA | 0.00374
141 | AAGCTATT | -0.162
142 | ACGACGAG | -0.0415
143 | GATTGTAA | 0.00034
144 | CAACTTAG | 0.221
145 | AAACGGAG | -0.00761
146 | CCGAAGTC | 0.0152
147 | CTACGCCA | -0.213
148 | GCACACCC | -0.193
149 | ACTACGCT | -0.0872
150 | TCAGGGCA | 0.225

Laid out differently: results already given
Row,Sequence,PBM E-score
129,AAACATAA,0.141
137,GCCAACGA,-0.0525
142,ACGACGAG,-0.0415
143,GATTGTAA,0.00034
144,CAACTTAG,0.221
149,ACTACGCT,-0.0872

Carrying on:

Row | Sequence | PBM E-score
151 | TGCATCCA | 0.0033
152 | TCTGTTAA | -0.053
153 | AGCACGCA | -0.154
154 | ACATGAGA | 0.0387
155 | ATTAGAAC | 0.121
156 | AAACCCCT | -0.0764
157 | ACGGGTTG | -0.159
158 | GGTAAGCA | 0.0126
159 | ATGGGCGC | -0.0707
160 | AAGCTGCA | 0.0133
161 | AAGGTGAG | -0.109
162 | AAGCCTCT | -0.249
163 | CAAATTGA | 0.133
164 | TACGAACA | 0.0119
165 | CAACCTCA | -0.0281
166 | GCCCTTGA | -0.00607
167 | CTACTGCC | -0.0361
168 | CGGAAGAA | -0.0893
169 | TAGATGAA | -0.101
170 | CCCGCAAC | 0.154
171 | GAGGCTAA | -0.0922
172 | CGGCAGGA | -0.173
